Source: US8999655B2, “Increase of myeloid microvesicles in the cerebrospinal fluid as biomarker of microglia/macrophage activation in neurological disorders” (Consiglio Nazionale delle Ricerche, priority 2010, dated 2015)
For at least one compound, name, drawing or mass did not settle the structure.

Tested on: primary microglia
Test: Spectrophotometric quantification of NBD-C6-HPC-labelled shed MVs/MPs released from primary microglia
Format: cell-based, rat
Settings: FIG. 1J

CN(C)c1ccc(O)c2c1C[C@H]1C[C@H]3[C@H](N(C)C)C(O)=C(C(N)=O)C(=O)[C@@]3(O)C(O)=C1C2=O [mynocicline]
increase in shed MPs production from microglia (microglia exposed to Th-1 cytokines or LPS for 24 h, BzATP 100 μM 20 min, minocycline 50 μg/ml): prevented the increase in shed MPs production | increase in shed MPs induced by ATP (pre-treatment, resting and LPS-primed primary microglia): largely inhibits the increase in shed MPs
